Data source: PubChem BioAssay AID1224830 (NIAID, 2016)
Here is an unselected part of about 18,000 reagents. About 2,900 of all reagents (16%) were called active. 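Calls are made per well; low scores hint the gene aids the LPS response, high scores that it dampens it.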 A number with no mark means an inactive call. Repeated entries: four replicate wells of each siRNA pool.

Purpose: 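Host factors that control LPS-induced TNF expression in human macrophages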 (primary screen)
Cell system: human THP-1 monocytic leukaemia cells, TNF dual-luciferase reporter clone, PMA-differentiated to macrophage-like cells
Reagents: siRNA pool against human genes, 50 nM
Duration: LPS for 4 h, given about 3 days after siRNA transfection
Treatment: bacterial LPS (TLR4 ligand), 10 ng/ml
Read-out: 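TNF firefly reporter luminescence divided by renilla, normalised to the plate median, then turned into a robust z-score for each replicate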
Scale: TNF reporter robust z-score: higher = stronger TNF reporter response to LPS
Hit rule: 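Each well counts as active if its z-score is over 2.8 or under -1.5; controls are left without a call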

| gene | PubChem SID | TNF reporter robust z-score |
| --- | --- | --- |
| TMEM231 | SID315459306 | 1.13 |
| TMEM231 | SID315459306 | 1.17 |
| TMEM231 | SID315459306 | 0.04 |
| TMEM231 | SID315459306 | 0.86 |
| SAXO2 | SID315463700 | -0.01 |
| SAXO2 | SID315463700 | -0.2 |
| SAXO2 | SID315463700 | 0.24 |
| SAXO2 | SID315463700 | 0.26 |
| SSX7 | SID315463613 | 0.54 |
| SSX7 | SID315463613 | 1.15 |
| SSX7 | SID315463613 | -0.3 |
| SSX7 | SID315463613 | -0.23 |
| GLTP | SID315456567 | 0.61 |
| GLTP | SID315456567 | 1.64 |
| GLTP | SID315456567 | 2.64 |
| GLTP | SID315456567 | 2.06 |
| SSX4B | SID315465033 | -0.44 |
| SSX4B | SID315465033 | 1.28 |
| SSX4B | SID315465033 | 0.83 |
| SSX4B | SID315465033 | 1.06 |
| PCED1A | SID315458985 | 0.21 |
| PCED1A | SID315458985 | 0.12 |
| PCED1A | SID315458985 | 0.14 |
| PCED1A | SID315458985 | -0.34 |
| SLC38A2 | SID315456993 | -0.03 |
| SLC38A2 | SID315456993 | 0.34 |
| SLC38A2 | SID315456993 | 1.5 |
| SLC38A2 | SID315456993 | 2.33 |
| RAD51C | SID315451031 | -0.57 |
| RAD51C | SID315451031 | 0.7 |
| RAD51C | SID315451031 | 1.19 |
| RAD51C | SID315451031 | 0.72 |
| PHAX | SID315456900 | -1.13 |
| PHAX | SID315456900 | -0.43 |
| PHAX | SID315456900 | -0.74 |
| PHAX | SID315456900 | -0.42 |
| SULT2B1 | SID315451702 | -0.23 |
| SULT2B1 | SID315451702 | -0.46 |
| SULT2B1 | SID315451702 | -0.13 |
| SULT2B1 | SID315451702 | 0.82 |
| LAMC1 | SID315449729 | -0.48 |
| LAMC1 | SID315449729 | -0.51 |
| LAMC1 | SID315449729 | -0.46 |
| LAMC1 | SID315449729 | -0.25 |
| FCGR1BP | SID315448651 | 0.67 |
| FCGR1BP | SID315448651 | -0.45 |
| FCGR1BP | SID315448651 | 0.26 |
| FCGR1BP | SID315448651 | 0.39 |
| TP53TG3 | SID315455447 | -1.43 |
| TP53TG3 | SID315455447 | -0.56 |
| TP53TG3 | SID315455447 | -0.7 |
| TP53TG3 | SID315455447 | -0.64 |
| ROBO1 | SID315451153 | 1.02 |
| ROBO1 | SID315451153 | 0.37 |
| ROBO1 | SID315451153 | 1.3 |
| ROBO1 | SID315451153 | 2.89 (active) |
| FCN1 | SID315448658 | 0.13 |
| FCN1 | SID315448658 | 0.55 |
| FCN1 | SID315448658 | -0.27 |
| FCN1 | SID315448658 | 0.05 |
| ADIPOQ | SID315453234 | 2.31 |
| ADIPOQ | SID315453234 | 1.9 |
| ADIPOQ | SID315453234 | 1.53 |
| TDRD6 | SID315463291 | 0.36 |
| TDRD6 | SID315463291 | 0.83 |
| TDRD6 | SID315463291 | -0.31 |
| TDRD6 | SID315463291 | -0.48 |
| LIG3 | SID315449766 | -0.49 |
| LIG3 | SID315449766 | 0.72 |
| LIG3 | SID315449766 | -0.31 |
| LIG3 | SID315449766 | -0.67 |
| PLEKHH2 | SID315461856 | -0.79 |
| PLEKHH2 | SID315461856 | -1.32 |
| PLEKHH2 | SID315461856 | 0.08 |
| PLEKHH2 | SID315461856 | 0.41 |
| IRF2BPL | SID315458863 | 0.22 |
| IRF2BPL | SID315458863 | 0.78 |
| IRF2BPL | SID315458863 | 0.23 |
| IRF2BPL | SID315458863 | -0.47 |
| PHLPP2 | SID315454944 | 0.08 |
| PHLPP2 | SID315454944 | 0.5 |
| PHLPP2 | SID315454944 | 0.92 |
| PHLPP2 | SID315454944 | 1.47 |
| RBMY1J | SID315464405 | 0.93 |
| RBMY1J | SID315464405 | 0.25 |
| RBMY1J | SID315464405 | 0.39 |
| RBMY1J | SID315464405 | 0.13 |
| TRMU | SID315457772 | 1.79 |
| TRMU | SID315457772 | 1.16 |
| TRMU | SID315457772 | -0.12 |
| TRMU | SID315457772 | 2.69 |
| KTN1 | SID315449715 | 0.03 |
| KTN1 | SID315449715 | -0.48 |
| KTN1 | SID315449715 | -0.53 |
| KTN1 | SID315449715 | -0.78 |
| TNFRSF12A | SID315456651 | 0.3 |
| TNFRSF12A | SID315456651 | 0.07 |
| TNFRSF12A | SID315456651 | 0.24 |
| TNFRSF12A | SID315456651 | 0.32 |
| CCDC54 | SID315460468 | -0.41 |
| CCDC54 | SID315460468 | 0.21 |
| CCDC54 | SID315460468 | 1.03 |
| CCDC54 | SID315460468 | 0.8 |
| DEFB132 | SID315464760 | 0.76 |
| DEFB132 | SID315464760 | -0.3 |
| DEFB132 | SID315464760 | -0.12 |
| DEFB132 | SID315464760 | 0.26 |
| TMEM176B | SID315456078 | -1.74 (active) |
| TMEM176B | SID315456078 | -1.69 (active) |
| TMEM176B | SID315456078 | -1.47 |
| TMEM176B | SID315456078 | -1.29 |
| CACNB4 | SID315447665 | -1.04 |
| CACNB4 | SID315447665 | -0.95 |
| CACNB4 | SID315447665 | -1.36 |
| CACNB4 | SID315447665 | -0.45 |
| TAOK1 | SID315458459 | 0.99 |
| TAOK1 | SID315458459 | 0.1 |
| TAOK1 | SID315458459 | 0.26 |
| TAOK1 | SID315458459 | -0.83 |
| ZNF345 | SID315455509 | 0.18 |
| ZNF345 | SID315455509 | 0.66 |
| ZNF345 | SID315455509 | -0.12 |
| ZNF345 | SID315455509 | 1.01 |
| KCNC4 | SID315449604 | -0.34 |
| KCNC4 | SID315449604 | -0.45 |
| KCNC4 | SID315449604 | -0.92 |
| KCNC4 | SID315449604 | -0.08 |
| RDH16 | SID315452683 | -0.41 |
| RDH16 | SID315452683 | 0.28 |
| RDH16 | SID315452683 | -0.63 |
| RDH16 | SID315452683 | -0.15 |
| ARHGAP25 | SID315453692 | 0.21 |
| ARHGAP25 | SID315453692 | -0.34 |
| ARHGAP25 | SID315453692 | -0.85 |
| ARHGAP25 | SID315453692 | -0.31 |
| BORCS5 | SID315461436 | -0.32 |
| BORCS5 | SID315461436 | 0.69 |
| BORCS5 | SID315461436 | 1.27 |
| BORCS5 | SID315461436 | 0.23 |
| C9orf153 | SID315464574 | 0.48 |
| C9orf153 | SID315464574 | 1.49 |
| C9orf153 | SID315464574 | 1.02 |
| C9orf153 | SID315464574 | 2.03 |

13 of these entries, reformatted:
gene,PubChem SID,TNF reporter robust z-score
DEFB132,SID315464760,0.76
DEFB132,SID315464760,-0.3
DEFB132,SID315464760,-0.12
DEFB132,SID315464760,0.26
TMEM176B,SID315456078,-1.74 (active)
TMEM176B,SID315456078,-1.69 (active)
TMEM176B,SID315456078,-1.47
TMEM176B,SID315456078,-1.29
CACNB4,SID315447665,-1.04
CACNB4,SID315447665,-0.95
CACNB4,SID315447665,-1.36
CACNB4,SID315447665,-0.45
TAOK1,SID315458459,0.99
